# Source: patent US12472230B2, “Peptides and methods of use thereof in treating uveitis” (Park Strategic Ventures LLC, priority 2019, dated 2025)
# Not every detail of the peptide structures is certain; ends, links or a residue may be inferred. Residues, ends and D or L forms follow the SMILES beside them. *: point of attachment. Myristoyl = CCCCCCCCCCCCCC(=O)*
# How the values were obtained:
# [1] = system: goblet cells; conditions: cited from earlier work
# [2] = system: release of inflammatory mediators from leukocyte cell types; experiment: Release of inflammatory mediators from leukocyte cell types, MANS versus RNS; format: cell-based, human; conditions: each of the cell types examined; time course of 0.5-3.0 hrs
# Method: In an in vitro method to inhibit or attenuate the release of a mediator of inflammation such as those described herein, each of the cell types is preincubated with a peptide compound or peptide composition of this disclosure over a range of concentrations followed by incubation of these cells by a stimulator of release of inflammatory mediators, such as phorbol ester. The percent of inhibition of release of a mediator of inflammation is determined as compared to the release of the mediator in the absence of the peptide compound or peptide composition, such as in a specrophotometric readout of a concentration of the mediator released.
smiles,measurement,setting,value
CCCCCCCCCCCCCC(=O)NCC(=O)N[C@@H](C)C(=O)N[C@@H](CCC(N)=O)C(=O)N[C@@H](Cc1ccccc1)C(=O)N[C@@H](CO)C(=O)N[C@@H](CCCCN)C(=O)N[C@H](C(=O)N[C@@H](C)C(=O)N[C@@H](C)C(=O)N[C@@H](CCCCN)C(=O)NCC(=O)N[C@@H](CCC(=O)O)C(=O)N[C@@H](C)C(=O)N[C@@H](C)C(=O)N[C@@H](C)C(=O)N[C@@H](CCC(=O)O)C(=O)N[C@@H](CCCNC(=N)N)C(=O)N1CCC[C@H]1C(=O)NCC(=O)N[C@@H](CCC(=O)O)C(=O)N[C@@H](C)C(=O)N[C@@H](C)C(=O)N[C@H](C(=O)N[C@@H](C)C(=O)O)C(C)C)[C@@H](C)O [MANS] (Myristoyl-GAQFSKTAAKGEAAAERPGEAAVA-OH; C-terminus assumed),binding of MARCKS to mucin granule membranes,[1],block
same,mucin secretion,[1],block
same,release of inflammatory mediators,[2],attenuated release of inflammatory mediators in a concentration-dependent manner
